Measured values from PubChem BioAssay AID493014 (National Center for Advancing Translational Sciences (NCATS), 2011).
This is one part of the list. Shown are side measurements of this screen, not its main read-out; they come without a call. Compounds called inactive in the main read-out are mostly missing here. The note in brackets gives the kind of curve behind each potency; many fits are weak.

Experiment: qHTS Assay to Find Inhibitors of Chronic Active B-Cell Receptor Signaling
Conditions: ABC-DLBCL IkBa-CBG/CBR reporter, luminescence ratio (green luciferase fused to IkBa over red control in TMD8 lymphoma cells), 4 h
Outline: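 TMD8 human ABC-DLBCL cells with doxycycline-inducible IκBα–green luciferase fusion and unfused red luciferase, in 0.5% FBS medium; compounds up to 46 uM, 4 h at 37C. Green/red luminescence ratio, filter-overlap corrected, fitted to concentration-response curves.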

[1] = measured here: CBR red luminescence, cell number

SMILES: COc1ccc(NC(=S)Nc2cc(-c3ccccc3)[nH]n2)cc1Cl
- AC50 [1]: 29.1 µM [falling, single point]

SMILES: Cc1ccc(NC(=O)Nc2cc(C)on2)cc1
- AC50 [1]: 2.51 µM [rising, partial curve]

SMILES: COc1ccc(C(C(=O)NC2CCCC2)N(Cc2ccccc2)C(=O)CNC(=O)c2ccco2)cc1 (configuration not stated)
- AC50 [1]: 4.11 µM [rising, partial curve]

SMILES: CCOC(=O)/C=C/C(=O)Nc1cccc([N+](=O)[O-])c1
- AC50 [1]: 8.2 µM [falling, partial curve]

SMILES: Cc1ccc(/C=C2\SC(=S)N(CCC(=O)NNS(=O)(=O)c3ccc(C)cc3)C2=O)cc1
- AC50 [1]: 0.731 µM [falling, full curve]

SMILES: COc1ccc(OC)c(C2CC(=O)N3CN(c4cccc(Cl)c4C)CSC3=C2C#N)c1 (configuration not stated)
- AC50 [1]: 32.6 µM [falling, single point]

SMILES: COc1cc(C2C(C#N)=C(N)Oc3cc(C)n(CCN4CCOCC4)c(=O)c32)cc(OC)c1OC (configuration not stated)
- AC50 [1]: 35.5 µM [rising, single point]

SMILES: N#C/C(=C\c1cccc([N+](=O)[O-])c1)c1ccccn1
- AC50 [1]: 25.1 µM [falling, single point]

SMILES: O=C(c1cc(Br)ccc1O)N1CCN(S(=O)(=O)Cc2ccccc2)CC1
- AC50 [1]: 1.46 µM [rising, single point]

SMILES: O=C(N/N=C/c1ccc(O)c(O)c1O)/C(=C/c1ccc([N+](=O)[O-])cc1)NC(=O)c1ccccc1
- AC50 [1]: 0.00461 µM [falling, full curve, poor fit]

SMILES: CCc1ccccc1NC(=O)c1cc(S(=O)(=O)N2CCc3ccccc32)ccc1F
- AC50 [1]: 15.8 µM [falling, single point]

SMILES: Cc1ccc(Cl)cc1NC(=O)C1COc2ccccc2O1 (configuration not stated)
- AC50 [1]: 3.98 µM [rising, full curve, poor fit]

SMILES: Cc1cc(SCC(=O)NCC(c2cccs2)N2CCOCC2)c(C)cc1Br (configuration not stated)
- AC50 [1]: 25.9 µM [falling, partial curve]

SMILES: Cn1c(=O)c2c(nc(CN3CCN(C(=O)c4ccco4)CC3)n2CC(=O)C(C)(C)C)n(C)c1=O
- AC50 [1]: 15.8 µM [rising, single point]

SMILES: Cc1cccc(N2CCN(C(=O)c3cccs3)CC2)c1C
- AC50 [1]: 35.5 µM [falling, single point]

SMILES: CCc1ccc(C(=O)NC2CCCCC2)s1
- AC50 [1]: 8.91 µM [falling, partial curve, poor fit]

SMILES: CC(=O)c1sc(NC(=O)CS(=O)(=O)c2ccc(F)cc2)nc1C
- AC50 [1]: 29.1 µM [falling, single point]

SMILES: Cc1cc(Cl)ccc1NC(=S)NCC(C)C
- AC50 [1]: 20.6 µM [rising, single point]

SMILES: COCCNC(=O)C(OC(=O)C1=Cc2ccccc2OC1)C(C)C (configuration not stated)
- AC50 [1]: 3.55 µM [rising, partial curve, poor fit]

SMILES: CCOC(=O)c1sc(NC(=O)Cc2ccccc2OC)nc1C
- AC50 [1]: 8.91 µM [falling, partial curve]

SMILES: O=C(N/N=C/c1ccc(N2CCOCC2)cc1)c1ccccc1NS(=O)(=O)c1cccs1
- AC50 [1]: 10 µM [falling, partial curve, poor fit]

SMILES: Cn1nc(-c2ccccn2)nc2c(=O)n(C)c(=O)nc1-2
- AC50 [1]: 6.31 µM [falling, full curve, poor fit]

SMILES: COC(=O)CSc1nc(SCc2ccccc2Cl)nc2c1CCCC2
- AC50 [1]: 4.11 µM [falling, full curve]

SMILES: CNC(=O)c1cc(S(=O)(=O)Nc2ccc(C)cc2C)ccc1C
- AC50 [1]: 15.8 µM [rising, single point]

SMILES: Cc1ccc(NC(=O)C2(NC(=O)c3cccc(N4C(=O)CSC4c4ccccc4)c3)CCCCC2)cc1 (configuration not stated)
- AC50 [1]: 11.2 µM [falling, partial curve, poor fit]

SMILES: COC(=O)C1=C(C(=O)OC)[C@@H]2N(Cc3ccccc3)c3ccccc3[C@@]23C[C@@H](C(=O)OC)N(C(=O)c2cccs2)C3=N1
- AC50 [1]: 35.5 µM [falling, single point]

SMILES: C=CCOc1ccc(-c2n[nH]c(=S)o2)cc1
- AC50 [1]: 3.16 µM [rising, single point]

SMILES: Cc1ccc(NC(=O)C(=O)NN)cc1
- AC50 [1]: 12.6 µM [falling, single point]

SMILES: O=C(Nc1nnc(-c2ccc(Cl)cc2)o1)c1ccccc1Br
- AC50 [1]: 14.6 µM [falling, partial curve, poor fit]

SMILES: O=C(Cn1c(SCC(=O)NC2CCCC2)nnc1-c1ccncc1)Nc1ccc2c(c1)OCO2
- AC50 [1]: 5.62 µM [rising, full curve, poor fit]

SMILES: CC1CN(Cc2nc3c(c(=O)n(C)c(=O)n3C)n2Cc2ccccc2)CC(C)O1 (configuration not stated)
- AC50 [1]: 25.9 µM [falling, partial curve, poor fit]

SMILES: Cc1cccc(C(=O)NCCNC(=O)c2cnccn2)c1
- AC50 [1]: 0.112 µM [falling, full curve, poor fit]

SMILES: CCOc1ccc(-c2nc(C)c(C(C)=O)n2O)cc1
- AC50 [1]: 3.26 µM [falling, full curve]

SMILES: Cc1nc2nc(CCc3ccccc3)nn2c(C)c1Cl
- AC50 [1]: 17.8 µM [falling, single point]

SMILES: Cc1ccc(C)c(N(CC(=O)NCc2ccc3c(c2)OCO3)C(=O)CCC(=O)Nc2ccccn2)c1
- AC50 [1]: 35.5 µM [falling, single point]

SMILES: O=C(Nc1cccnc1Cl)c1cc2c(s1)-c1ccccc1OC2
- AC50 [1]: 6.31 µM [falling, partial curve]

SMILES: S=C1Cc2ccccc2N1
- AC50 [1]: 11.2 µM [falling, partial curve]
- AC50 (measured here: IkBa-CBG green luminescence): 14.1 µM [rising, partial curve, poor fit]

SMILES: COc1ccc(C2=NN(C(=O)c3ccccc3C(=O)O)C(c3ccccc3O)C2)cc1 (configuration not stated)
- AC50 [1]: 14.1 µM [falling, single point]

SMILES: CC(C)C(=O)OCC(=O)Nc1ccc2c(c1)CCC2
- AC50 [1]: 10.3 µM [rising, single point]

SMILES: S=c1nc(COc2ccccc2)[nH]c2ccccc12
- AC50 [1]: 35.5 µM [falling, single point]

SMILES: Cc1ccc(-c2cc(N)n(-c3ccc(C)cc3)n2)cc1
- AC50 [1]: 0.708 µM [falling, full curve, poor fit]
